From the supplement of paper PMC10849652
This is one part of the list.

The chains behind the UniProt entries cited, without tags or fusion partners. Where a name states a change or a piece, a line headed by the entry shows the natural chain unless it says otherwise.
UniProt Q96AT1: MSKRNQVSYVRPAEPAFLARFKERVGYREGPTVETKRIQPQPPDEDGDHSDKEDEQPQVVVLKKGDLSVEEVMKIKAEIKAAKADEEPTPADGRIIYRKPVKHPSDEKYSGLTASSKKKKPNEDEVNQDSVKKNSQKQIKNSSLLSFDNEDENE
UniProt Q6IAA8, whole entry, looked up: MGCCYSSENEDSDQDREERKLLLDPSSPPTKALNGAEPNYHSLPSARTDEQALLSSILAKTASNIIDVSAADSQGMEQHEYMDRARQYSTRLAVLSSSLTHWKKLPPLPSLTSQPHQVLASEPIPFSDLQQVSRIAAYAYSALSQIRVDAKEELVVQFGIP
UniProt Q53H82: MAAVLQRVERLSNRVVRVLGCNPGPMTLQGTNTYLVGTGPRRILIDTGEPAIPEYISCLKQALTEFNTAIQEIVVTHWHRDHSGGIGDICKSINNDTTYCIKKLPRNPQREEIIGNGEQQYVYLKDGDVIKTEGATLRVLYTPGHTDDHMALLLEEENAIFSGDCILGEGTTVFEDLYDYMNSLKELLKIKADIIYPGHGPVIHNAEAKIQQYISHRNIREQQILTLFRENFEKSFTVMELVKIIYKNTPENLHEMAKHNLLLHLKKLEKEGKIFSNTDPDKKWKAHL
UniProt Q9BQ90: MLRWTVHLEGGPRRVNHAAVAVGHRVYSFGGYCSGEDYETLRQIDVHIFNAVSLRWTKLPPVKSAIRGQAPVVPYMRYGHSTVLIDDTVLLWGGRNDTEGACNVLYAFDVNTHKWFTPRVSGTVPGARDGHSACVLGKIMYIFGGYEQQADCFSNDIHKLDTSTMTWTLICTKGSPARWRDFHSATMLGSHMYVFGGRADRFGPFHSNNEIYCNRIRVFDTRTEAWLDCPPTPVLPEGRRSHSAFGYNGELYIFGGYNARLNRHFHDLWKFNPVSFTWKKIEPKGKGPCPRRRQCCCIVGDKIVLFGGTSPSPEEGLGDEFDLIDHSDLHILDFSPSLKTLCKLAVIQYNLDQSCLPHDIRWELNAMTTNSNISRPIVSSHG
UniProt Q8IXQ5, whole entry, looked up: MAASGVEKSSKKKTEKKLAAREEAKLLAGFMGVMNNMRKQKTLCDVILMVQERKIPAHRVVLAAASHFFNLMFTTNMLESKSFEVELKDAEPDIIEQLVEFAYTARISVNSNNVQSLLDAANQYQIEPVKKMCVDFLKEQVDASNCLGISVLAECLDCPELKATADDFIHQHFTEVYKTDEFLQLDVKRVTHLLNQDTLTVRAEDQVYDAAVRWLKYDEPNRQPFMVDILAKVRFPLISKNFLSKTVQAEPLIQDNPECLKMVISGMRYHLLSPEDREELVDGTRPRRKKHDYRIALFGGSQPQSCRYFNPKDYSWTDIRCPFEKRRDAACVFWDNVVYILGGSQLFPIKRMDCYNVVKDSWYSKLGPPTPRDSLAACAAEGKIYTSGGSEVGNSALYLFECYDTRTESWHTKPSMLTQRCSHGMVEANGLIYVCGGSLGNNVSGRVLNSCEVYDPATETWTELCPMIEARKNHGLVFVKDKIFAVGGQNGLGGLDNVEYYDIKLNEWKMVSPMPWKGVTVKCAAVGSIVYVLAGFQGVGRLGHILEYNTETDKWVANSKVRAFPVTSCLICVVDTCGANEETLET
UniProt Q14667: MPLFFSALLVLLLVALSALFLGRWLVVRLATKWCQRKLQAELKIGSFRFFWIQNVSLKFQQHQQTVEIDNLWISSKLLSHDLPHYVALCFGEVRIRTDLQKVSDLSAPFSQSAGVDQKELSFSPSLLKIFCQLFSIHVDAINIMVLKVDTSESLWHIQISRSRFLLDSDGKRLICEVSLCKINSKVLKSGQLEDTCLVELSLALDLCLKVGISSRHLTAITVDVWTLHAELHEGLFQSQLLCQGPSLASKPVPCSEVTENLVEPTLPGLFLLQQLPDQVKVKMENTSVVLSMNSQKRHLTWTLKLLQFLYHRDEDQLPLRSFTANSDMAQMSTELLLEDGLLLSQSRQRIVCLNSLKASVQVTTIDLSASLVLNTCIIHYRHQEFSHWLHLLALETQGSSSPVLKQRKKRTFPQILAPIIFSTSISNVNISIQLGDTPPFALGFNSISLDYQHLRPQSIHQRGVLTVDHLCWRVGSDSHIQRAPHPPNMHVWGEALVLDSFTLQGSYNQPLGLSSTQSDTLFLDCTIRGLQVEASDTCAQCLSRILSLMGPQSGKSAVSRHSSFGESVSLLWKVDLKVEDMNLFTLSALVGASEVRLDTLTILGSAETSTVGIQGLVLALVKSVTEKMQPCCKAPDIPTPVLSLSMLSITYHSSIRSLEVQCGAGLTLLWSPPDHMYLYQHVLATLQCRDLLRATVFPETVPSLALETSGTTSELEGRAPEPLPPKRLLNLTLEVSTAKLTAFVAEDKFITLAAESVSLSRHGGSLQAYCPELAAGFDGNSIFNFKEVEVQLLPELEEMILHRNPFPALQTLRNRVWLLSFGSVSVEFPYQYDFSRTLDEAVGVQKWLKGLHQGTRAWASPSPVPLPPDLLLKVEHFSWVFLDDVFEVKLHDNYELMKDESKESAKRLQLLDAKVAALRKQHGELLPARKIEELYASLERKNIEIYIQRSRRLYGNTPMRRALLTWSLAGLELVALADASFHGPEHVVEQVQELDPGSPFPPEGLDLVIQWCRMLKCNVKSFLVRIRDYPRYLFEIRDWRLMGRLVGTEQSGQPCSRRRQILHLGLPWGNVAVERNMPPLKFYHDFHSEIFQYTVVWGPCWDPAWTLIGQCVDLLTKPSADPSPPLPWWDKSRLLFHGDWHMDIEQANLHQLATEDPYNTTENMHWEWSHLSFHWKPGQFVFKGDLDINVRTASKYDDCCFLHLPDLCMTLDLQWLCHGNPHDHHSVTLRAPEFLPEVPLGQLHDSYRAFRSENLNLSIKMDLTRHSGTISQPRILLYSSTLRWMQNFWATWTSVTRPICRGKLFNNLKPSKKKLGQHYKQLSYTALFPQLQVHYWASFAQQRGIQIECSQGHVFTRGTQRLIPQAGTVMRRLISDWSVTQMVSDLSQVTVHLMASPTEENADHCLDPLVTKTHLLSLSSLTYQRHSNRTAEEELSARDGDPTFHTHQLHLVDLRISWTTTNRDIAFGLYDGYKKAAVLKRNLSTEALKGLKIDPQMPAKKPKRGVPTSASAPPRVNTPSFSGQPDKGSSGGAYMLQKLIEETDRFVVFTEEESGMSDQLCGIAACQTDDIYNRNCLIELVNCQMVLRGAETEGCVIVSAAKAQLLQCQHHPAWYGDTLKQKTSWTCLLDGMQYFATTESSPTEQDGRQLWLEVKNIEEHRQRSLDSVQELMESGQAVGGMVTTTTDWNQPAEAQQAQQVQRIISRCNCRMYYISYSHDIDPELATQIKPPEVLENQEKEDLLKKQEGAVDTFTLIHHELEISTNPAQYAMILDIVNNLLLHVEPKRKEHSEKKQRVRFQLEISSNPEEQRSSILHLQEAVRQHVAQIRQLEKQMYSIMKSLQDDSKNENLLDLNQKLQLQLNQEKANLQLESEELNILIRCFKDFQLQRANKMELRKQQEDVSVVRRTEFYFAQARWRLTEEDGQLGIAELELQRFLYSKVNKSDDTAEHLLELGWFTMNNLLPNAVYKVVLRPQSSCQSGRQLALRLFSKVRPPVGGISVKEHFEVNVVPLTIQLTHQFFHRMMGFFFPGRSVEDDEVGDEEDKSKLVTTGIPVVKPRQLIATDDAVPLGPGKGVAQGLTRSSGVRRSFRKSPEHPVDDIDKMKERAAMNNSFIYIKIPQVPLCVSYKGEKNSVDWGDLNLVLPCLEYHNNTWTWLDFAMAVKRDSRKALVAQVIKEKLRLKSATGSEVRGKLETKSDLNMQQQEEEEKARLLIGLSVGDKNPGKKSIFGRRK
UniProt Q99661: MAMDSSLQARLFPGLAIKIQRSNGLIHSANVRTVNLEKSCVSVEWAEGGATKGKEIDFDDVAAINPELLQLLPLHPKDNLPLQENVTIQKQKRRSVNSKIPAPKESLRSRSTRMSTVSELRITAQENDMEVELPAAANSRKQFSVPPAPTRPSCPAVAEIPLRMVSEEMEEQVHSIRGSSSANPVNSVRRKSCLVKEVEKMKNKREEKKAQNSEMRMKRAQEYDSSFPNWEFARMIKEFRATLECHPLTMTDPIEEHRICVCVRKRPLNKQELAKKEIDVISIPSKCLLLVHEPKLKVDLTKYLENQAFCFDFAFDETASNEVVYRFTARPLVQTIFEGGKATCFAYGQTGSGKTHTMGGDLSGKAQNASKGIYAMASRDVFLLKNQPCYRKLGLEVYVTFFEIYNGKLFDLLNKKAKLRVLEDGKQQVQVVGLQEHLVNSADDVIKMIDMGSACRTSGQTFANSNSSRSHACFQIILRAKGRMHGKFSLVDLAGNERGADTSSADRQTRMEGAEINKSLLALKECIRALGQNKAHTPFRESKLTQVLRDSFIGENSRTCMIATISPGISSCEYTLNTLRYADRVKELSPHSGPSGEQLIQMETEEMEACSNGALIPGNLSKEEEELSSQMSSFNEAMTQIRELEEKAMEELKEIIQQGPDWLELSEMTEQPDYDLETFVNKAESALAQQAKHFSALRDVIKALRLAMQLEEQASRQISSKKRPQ
UniProt P33176: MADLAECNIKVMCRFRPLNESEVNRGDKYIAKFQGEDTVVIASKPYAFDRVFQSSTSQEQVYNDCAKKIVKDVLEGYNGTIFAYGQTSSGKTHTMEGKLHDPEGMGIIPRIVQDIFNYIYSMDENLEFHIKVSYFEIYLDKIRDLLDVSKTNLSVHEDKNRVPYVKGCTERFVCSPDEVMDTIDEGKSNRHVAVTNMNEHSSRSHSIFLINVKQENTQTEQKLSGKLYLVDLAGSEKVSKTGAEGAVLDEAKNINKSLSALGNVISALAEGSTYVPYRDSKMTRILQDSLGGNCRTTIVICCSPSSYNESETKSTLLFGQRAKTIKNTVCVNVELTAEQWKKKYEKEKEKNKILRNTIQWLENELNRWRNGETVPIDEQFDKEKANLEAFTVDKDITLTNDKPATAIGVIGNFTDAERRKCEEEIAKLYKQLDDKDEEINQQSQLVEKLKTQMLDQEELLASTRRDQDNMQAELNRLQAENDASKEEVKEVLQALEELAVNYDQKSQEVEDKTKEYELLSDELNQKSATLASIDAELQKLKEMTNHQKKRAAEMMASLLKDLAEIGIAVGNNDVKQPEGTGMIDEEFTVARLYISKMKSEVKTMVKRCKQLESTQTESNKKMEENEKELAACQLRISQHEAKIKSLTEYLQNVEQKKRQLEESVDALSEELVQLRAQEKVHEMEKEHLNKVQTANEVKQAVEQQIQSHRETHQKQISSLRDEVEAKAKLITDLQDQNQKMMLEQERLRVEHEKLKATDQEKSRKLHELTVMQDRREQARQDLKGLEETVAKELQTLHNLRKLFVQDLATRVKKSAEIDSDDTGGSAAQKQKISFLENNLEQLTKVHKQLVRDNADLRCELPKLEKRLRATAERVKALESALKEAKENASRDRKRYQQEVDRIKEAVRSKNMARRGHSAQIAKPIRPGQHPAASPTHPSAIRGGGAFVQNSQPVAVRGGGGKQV
UniProt Q9H9P8: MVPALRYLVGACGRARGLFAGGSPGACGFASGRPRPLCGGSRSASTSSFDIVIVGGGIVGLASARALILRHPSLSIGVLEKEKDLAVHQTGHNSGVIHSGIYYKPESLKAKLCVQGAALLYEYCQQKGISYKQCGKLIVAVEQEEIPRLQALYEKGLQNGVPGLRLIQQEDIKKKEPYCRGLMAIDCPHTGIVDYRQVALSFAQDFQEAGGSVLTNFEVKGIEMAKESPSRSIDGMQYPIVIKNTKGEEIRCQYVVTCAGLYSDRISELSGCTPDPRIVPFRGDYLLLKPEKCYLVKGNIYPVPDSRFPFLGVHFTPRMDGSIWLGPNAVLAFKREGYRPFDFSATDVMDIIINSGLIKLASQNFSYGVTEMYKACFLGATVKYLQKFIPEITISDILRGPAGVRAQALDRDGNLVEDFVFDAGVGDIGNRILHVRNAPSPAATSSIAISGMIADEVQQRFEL
UniProt Q07866: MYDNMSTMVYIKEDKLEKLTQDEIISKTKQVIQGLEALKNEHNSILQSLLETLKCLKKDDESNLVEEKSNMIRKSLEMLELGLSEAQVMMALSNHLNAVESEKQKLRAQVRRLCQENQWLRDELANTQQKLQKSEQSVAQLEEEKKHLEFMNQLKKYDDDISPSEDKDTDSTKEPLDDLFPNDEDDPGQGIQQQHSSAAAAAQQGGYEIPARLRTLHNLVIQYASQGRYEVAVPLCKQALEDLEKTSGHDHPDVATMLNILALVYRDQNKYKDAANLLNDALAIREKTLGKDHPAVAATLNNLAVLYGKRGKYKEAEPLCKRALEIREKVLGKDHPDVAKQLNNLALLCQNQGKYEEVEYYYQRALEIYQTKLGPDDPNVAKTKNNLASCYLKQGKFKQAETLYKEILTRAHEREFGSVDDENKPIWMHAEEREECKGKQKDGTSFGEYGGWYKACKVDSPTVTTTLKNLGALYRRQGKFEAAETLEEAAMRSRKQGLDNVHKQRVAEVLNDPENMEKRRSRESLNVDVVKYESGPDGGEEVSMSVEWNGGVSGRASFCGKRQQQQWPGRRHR

Assays:
Assay in all cases: log2 fold change, soluble protein after heating vs DMSO (PISA); higher = thermal stabilisation; K562 lysate, 10 uM; active = over 0.2 and 3.5 SD of the protein, either way, in both replicates (recomputed)
nilotinib = compound: Cc1cn(-c2cc(NC(=O)c3ccc(C)c(Nc4nccc(-c5cccnc5)n4)c3)cc(C(F)(F)F)c2)cn1 [nilotinib]
How it was run: (§1)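 To prepare the extract, K562 pellets were dounce-homogenised in PBS pH 7.4 with 1 mM MgCl2, giving crude material at 1 mg/mL protein. This was treated with 10 μM compound for 30 min, then heated in aliquots for 3 min over 48°C-58°C before pooling and addition of NP-40 to 0.5% at 4°C. Centrifugation at 21,000xg for 90 min left soluble protein in the supernatant, which TMTpro 16plex LC-MS/MS quantified with equalised channel sums. Results are log-two fold changes in thermal stability compared with solvent controls, from duplicates.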

[1] = compound: Cc1nc(Nc2n[nH]c3c2CN(C(=O)N[C@H](CN(C)C)c2ccccc2)C3(C)C)c2sccc2n1
How it was run: as §1

dasatinib = compound: Cc1nc(Nc2ncc(C(=O)Nc3c(C)cccc3Cl)s2)cc(N2CCN(CCO)CC2)n1 [dasatinib]
How it was run: as §1

[2] = compound: Cc1ncc(-c2ccnc(Nc3ccc(S(C)(=O)=O)cc3)n2)n1C(C)C
How it was run: as §1

[3] = compound: Cn1cc(-c2ccc3c(c2)CCN3C(=O)Cc2cccc(C(F)(F)F)c2)c2c(N)ncnc21
How it was run: as §1

quisinostat = compound: Cn1cc(CNCC2CCN(c3ncc(C(=O)NO)cn3)CC2)c2ccccc21 [quisinostat]
How it was run: as §1

tipifarnib = compound: Cn1cncc1[C@@](N)(c1ccc(Cl)cc1)c1ccc2c(c1)c(-c1cccc(Cl)c1)cc(=O)n2C [tipifarnib]
How it was run: as §1

[4] = compound: NC(=O)Nc1cc(-c2cccc(F)c2)sc1C(=O)N[C@H]1CCCNC1
How it was run: as §1

[5] = compound: NC(=O)c1cnc(N[C@@H]2CCCC[C@@H]2N)nc1Nc1cccc(-n2nccn2)c1
How it was run: as §1

[6] = compound: NC1(c2ccc(-c3nc4ccn5c(=O)[nH]nc5c4cc3-c3ccccc3)cc2)CCC1
How it was run: as §1

Measured: log2 fold change

KIAA1143 (UniProt Q96AT1)
inactive: nilotinib -0.006 | [1] 0.01 | dasatinib 0.021 | [2] -0.03 | [3] 0.002 | quisinostat -0.112 | tipifarnib -0.038 | [4] -0.012 | [5] -0.017 | [6] -0.022

KPNA3 (UniProt O00505)
inactive: nilotinib -0.032 | [1] 0.037 | dasatinib -0.023 | [2] 0.028 | [3] 0.009 | quisinostat 0.027 | tipifarnib -0.022 | [4] 0.042 | [5] 0.039 | [6] 0.028

LANCL1 (UniProt O43813)
inactive: nilotinib 0.013 | [1] -0.008 | dasatinib -0.025 | [2] 0.023 | [3] 0.025 | quisinostat 0.001 | tipifarnib 0.016 | [4] -0.016 | [5] 0.001 | [6] 0.002

KPNA4 (UniProt O00629)
inactive: nilotinib -0.013 | [1] 0.006 | dasatinib 0.063 | [2] 0.018 | [3] 0.003 | quisinostat -0.088 | tipifarnib -0.033 | [4] -0.012 | [5] 0 | [6] -0.058

LAMTOR1 (UniProt Q6IAA8)
inactive: nilotinib 0.095 | [1] 0.014 | dasatinib 0.003 | [2] 0.062 | [3] 0.048 | quisinostat 0.007 | tipifarnib 0.048 | [4] 0.023 | [5] -0.066 | [6] 0.006

LAP3 (UniProt P28838)
inactive: nilotinib 0.045 | [1] -0.006 | dasatinib -0.047 | [2] 0.016 | [3] -0.123 | quisinostat -0.192 | tipifarnib -0.008 | [4] 0.049 | [5] 0.009 | [6] -0.137

LACTB2 (UniProt Q53H82)
inactive: nilotinib -0.011 | [1] 0.022 | dasatinib 0.016 | [2] 0.004 | [3] -0.021 | quisinostat 0.027 | tipifarnib 0.015 | [4] -0.026 | [5] -0.009 | [6] -0.001

KIFC1 (UniProt Q9BW19)
inactive: nilotinib -0.008 | [1] 0.003 | dasatinib -0.031 | [2] -0.002 | [3] 0.034 | quisinostat -0.055 | tipifarnib 0.006 | [4] 0.001 | [5] -0.024 | [6] -0.025

KIF14 (UniProt Q15058)
inactive: nilotinib 0.003 | [1] 0.042 | dasatinib -0.035 | [2] 0.033 | [3] 0.007 | quisinostat -0.139 | tipifarnib -0.046 | [4] 0 | [5] 0.001 | [6] -0.024

KLHDC3 (UniProt Q9BQ90)
inactive: nilotinib 0.079 | [1] 0.058 | dasatinib 0.038 | [2] -0.119 | [3] 0.018 | quisinostat -0.087 | tipifarnib -0.003 | [4] 0.057 | [5] 0.007 | [6] -0.148

KTN1 (UniProt Q86UP2)
inactive: nilotinib -0.008 | [1] 0 | dasatinib -0.007 | [2] 0.016 | [3] -0.005 | quisinostat -0.035 | tipifarnib -0.002 | [4] 0.002 | [5] 0 | [6] -0.002

KIAA2013 (UniProt Q8IYS2)
inactive: nilotinib 0.008 | [1] -0.028 | dasatinib -0.022 | [2] 0.025 | [3] -0.01 | quisinostat 0.104 | tipifarnib -0.031 | [4] 0.045 | [5] -0.013 | [6] 0.039

KSR1 (UniProt Q8IVT5)
inactive: nilotinib 0 | [1] -0.04 | dasatinib -0.106 | [2] 0.056 | [3] 0.057 | quisinostat -0.015 | tipifarnib -0.116 | [4] 0.069 | [5] 0.051 | [6] 0.003

LARP1 (UniProt Q6PKG0)
inactive: nilotinib 0.005 | [1] -0.009 | dasatinib 0 | [2] -0.025 | [3] 0.026 | quisinostat 0.031 | tipifarnib 0.009 | [4] 0.017 | [5] 0.002 | [6] 0.007

KLHL7 (UniProt Q8IXQ5)
inactive: nilotinib -0.006 | [1] 0.016 | dasatinib -0.047 | [2] 0.102 | [3] 0.084 | quisinostat 0.039 | tipifarnib 0.127 | [4] -0.013 | [5] -0.071 | [6] 0.075

KIF11 (UniProt P52732)
inactive: nilotinib -0.016 | [1] 0.003 | dasatinib -0.021 | [2] -0.018 | [3] 0.034 | quisinostat -0.022 | tipifarnib -0.007 | [4] 0.006 | [5] 0 | [6] 0

LAMP2 (UniProt P13473)
inactive: nilotinib -0.02 | [1] 0.031 | dasatinib 0.04 | [2] -0.004 | [3] 0.038 | quisinostat 0.047 | tipifarnib -0.045 | [4] -0.013 | [5] -0.022 | [6] 0.02

KIAA0100 (UniProt Q14667)
inactive: nilotinib 0.105 | [1] 0.003 | dasatinib 0.003 | [2] -0.073 | [3] 0.013 | quisinostat -0.06 | tipifarnib -0.084 | [4] -0.013 | [5] 0.044 | [6] 0.042

KLHL12 isoform 2 (UniProt Q53G59)
inactive: nilotinib -0.037 | [1] -0.044 | dasatinib -0.056 | [2] 0.064 | [3] -0.07 | quisinostat 0.04 | tipifarnib 0.015 | [4] 0.097 | [5] 0.043 | [6] 0.035

KLHL18 (UniProt O94889)
inactive: nilotinib 0 | [1] -0.008 | dasatinib -0.026 | [2] -0.034 | [3] 0.051 | quisinostat -0.31 | tipifarnib -0.015 | [4] -0.035 | [5] 0.02 | [6] 0.053

2 neighbouring entries already listed, quoted:
KIF11 (UniProt P52732)
inactive: nilotinib -0.016 | [1] 0.003 | dasatinib -0.021 | [2] -0.018 | [3] 0.034 | quisinostat -0.022 | tipifarnib -0.007 | [4] 0.006 | [5] 0 | [6] 0

LAMP2 (UniProt P13473)
inactive: nilotinib -0.02 | [1] 0.031 | dasatinib 0.04 | [2] -0.004 | [3] 0.038 | quisinostat 0.047 | tipifarnib -0.045 | [4] -0.013 | [5] -0.022 | [6] 0.02

(continued)

LAMTOR2 (UniProt Q9Y2Q5)
inactive: nilotinib 0.034 | [1] 0.011 | dasatinib 0.017 | [2] 0.112 | [3] 0.004 | quisinostat -0.078 | tipifarnib 0.015 | [4] -0.024 | [5] -0.062 | [6] -0.002

LAMP1 (UniProt P11279)
inactive: nilotinib 0.021 | [1] -0.033 | dasatinib -0.058 | [2] 0.002 | [3] -0.036 | quisinostat -0.113 | tipifarnib -0.012 | [4] 0.016 | [5] -0.003 | [6] -0.017

KPNA6 (UniProt O60684)
inactive: nilotinib -0.035 | [1] 0.012 | dasatinib -0.009 | [2] 0.003 | [3] 0.013 | quisinostat -0.035 | tipifarnib -0.011 | [4] 0.004 | [5] 0.001 | [6] 0

LARS (UniProt Q9P2J5)
inactive: nilotinib 0.012 | [1] 0.003 | dasatinib -0.065 | [2] -0.012 | [3] 0.038 | quisinostat -0.005 | tipifarnib -0.006 | [4] 0.034 | [5] 0 | [6] -0.024

KIF2C (UniProt Q99661)
inactive: nilotinib 0.013 | [1] 0.009 | dasatinib -0.021 | [2] 0.002 | [3] 0.028 | quisinostat -0.068 | tipifarnib 0.003 | [4] 0.035 | [5] -0.01 | [6] -0.005

KIF5B (UniProt P33176)
inactive: nilotinib 0.006 | [1] -0.029 | dasatinib 0.003 | [2] -0.009 | [3] 0.006 | quisinostat -0.008 | tipifarnib 0.009 | [4] 0.003 | [5] 0.007 | [6] 0.013

KLHL26 (UniProt Q53HC5)
inactive: nilotinib 0.087 | [1] 0.141 | dasatinib 0.008 | [2] 0.021 | [3] 0.2 | quisinostat -0.029 | tipifarnib -0.044 | [4] 0.079 | [5] -0.054 | [6] 0.045

L2HGDH (UniProt Q9H9P8)
inactive: nilotinib -0.004 | [1] -0.01 | dasatinib 0.024 | [2] 0.04 | [3] -0.034 | quisinostat 0.028 | tipifarnib -0.047 | [4] 0.035 | [5] -0.006 | [6] 0.028

KLC1 isoform 6 (UniProt Q07866)
inactive: nilotinib 0.009 | [1] -0.017 | dasatinib -0.021 | [2] -0.009 | [3] 0.009 | quisinostat -0.014 | tipifarnib -0.005 | [4] -0.014 | [5] 0.002 | [6] 0.017

LAMTOR4 (UniProt Q0VGL1)
inactive: nilotinib 0.093 | [1] -0.042 | dasatinib -0.005 | [2] -0.008 | [3] -0.016 | quisinostat -0.101 | tipifarnib -0.012 | [4] 0 | [5] -0.045 | [6] -0.025
